Laboratory results reported in PMC12040169 (PLOS Biology, 2025).
The list shows a part of the results.

These molecules were tested on T1, CTL2-GFP (C. trachomatis L2/434/Bu, GFP-expressing). Conditions: bulk GFP, single well; 28.5 h, 10 µM; inhibitor.
T1 construct: L2/434/Bu, GFP-expressing
Design: species or system HeLa; Intracellular C. trachomatis growth in HeLa cells, bulk GFP fluorescence relative to DMSO

| SMILES | % of control remaining [%] |
| --- | --- |
| CCOc1cccc(CNC(=O)N2CCC(Cc3cnn(C)c3)C2)c1 (stereo not drawn) [CBK305280] | 107.221 |
| COC(=O)c1c(NC(=S)Nn2cnnc2)sc2c1CCC(C)C2 (stereo not drawn) [CBK266942] | 167.769 |
| CCc1nc2ccc(C(=O)NCC3CCCCC3)cn2c1N(C)Cc1ccc(OC)cc1 [CBK145568] | 168.63 |
| OCCn1ncc2c(NCc3nncn3-c3ccccc3)ncnc21 [CBK304608] | 165.391 |
| O=C(O)[C@H]1CN(C(=O)c2ccco2)C[C@@H]1c1ccc(F)cc1 [CBK283735] | 105.83 |
| COC(=O)CCn1c(=O)c2c(nc3oc(C)c(C)n32)n(C)c1=O [CBK306033] | 120.549 |
| Cn1nc(C(=O)NCC(c2ccccc2Cl)N2CCOCC2)ccc1=O (stereo not drawn) [CBK305886] | 111.051 |
| CC(=O)Oc1ccc(NC(=O)C2CC(Cl)=CCC2C(=O)O)cc1C(=O)O (stereo not drawn) [CBK265372] | 98.3377 |
| CCCNC(=O)C1(Cc2ccccc2-c2cccs2)CCN(C(=O)c2ccccc2)CC1 [CBK285694] | 121.945 |
| Cc1ccc(S(=O)(=O)NCCSCc2ccc(Cl)c(Cl)c2)cc1[N+](=O)[O-] [CBK264675] | 102.702 |
| Cc1[nH]c(=O)c(C(=O)N(C)C(C)c2ccc(Cl)cc2)cc1-c1ccc(O)cc1 (stereo not drawn) [CBK291225] | 128.127 |
| OCCSc1ccc(C(F)(F)F)cn1 [CBK028739] | 96.7653 |
| O=C(COc1ccc2ccccc2c1Br)NCCN1CCOCC1 [CBK267391] | 171.74 |
| Oc1c(-c2ccc(Cl)cc2)c2nc3ccccc3nc2c2ccccc12 [CBK261628] | 100 |
| CC(=O)NC1CCN(CC2(c3ccccc3F)CCCC2)CC1 [CBK282591] | 127.958 |
| COc1ccc(NC(=O)CCN2C(=O)c3ccccc3S2(=O)=O)cc1 [CBK265863] | 102.854 |
| CCC(C)C(=O)N1CCC(c2nnc3n2CCCCC3)CC1 (stereo not drawn) [CBK282260] | 136.133 |
| COc1ccccc1CCCN1CCC2(C1)c1[nH]c3ccccc3c1CCN2S(C)(=O)=O (stereo not drawn) [CBK074095] | 74.9629 |
| Cc1cc(C[C@@H]2COC[C@H]2NCc2cccs2)on1 [CBK282999] | 121.314 |
| Cc1ccc(S(=O)(=O)NC(CC(=O)O)c2ccccc2)cc1 (stereo not drawn) [CBK261307] | 107.308 |
| CCc1ccc(CNC(=O)Cn2nnc(-c3ccc(CN4CCC(C)CC4)nc3SC)n2)cc1 [CBK156205T] | 110.048 |
| O=C(Nc1ccc(=O)n2c1[C@@H]1C[C@@H](CN(C(=O)Nc3ccc(F)cc3)C1)C2)c1ccccc1 [CBK288715] | 120.542 |
| Cc1c(NC(=O)C2CCN(c3ccccc3Cl)C2)nnn1C (stereo not drawn) [CBK306263] | 151.66 |
| Cc1cccc(C)c1NC(=O)C(C#N)C(=O)c1nn(-c2ccccc2)c2c1CSc1ccccc1-2 (stereo not drawn) [CBK017678] | 100 |
| CC(CCc1ccccc1)NC(=O)CN1CCOCC1 (stereo not drawn) [CBK268994] | 140.964 |
| O=C(COc1ccc(S(=O)(=O)Nc2ccc(Cl)cc2)cc1)Nc1ccccc1F [CBK268427] | 115.766 |

| SMILES | % of control remaining [%] |
| --- | --- |
| CCCC(=O)N1CCC([C@@H]2C[C@H](C(F)F)n3nc(C)cc3N2)CC1 [CBK284724] | 103.524 |
| CC(C)n1c(=O)n(CCN2CCCC2)c2cccnc21 [CBK283532] | 128.036 |
| COc1cc(-c2nccnc2NCc2ccco2)cc(OC)c1OC [CBK037072] | 114.045 |
| O=S(=O)(Nc1nnc(C(F)(F)F)s1)c1ccc(Oc2ccccc2)cc1 [CBK062007] | 116.443 |
| O=C(O)c1[nH]c2ccccc2c1C(c1cc(Cl)cc([N+](=O)[O-])c1O)c1c(C(=O)O)[nH]c2ccccc12 [CBK267814] | 93.3374 |
| CC(=O)c1ccc(NS(=O)(=O)c2cc(C(=O)Nc3ccccc3C(=O)O)ccc2Br)cc1 [CBK263203] | 110.187 |
| O=C(CSc1nnc(-c2ccc(Cl)cc2)n1-c1ccccc1)N/N=C/c1ccco1 [CBK262996] | 106.326 |
| O=C(O)c1cc(S(=O)(=O)Nc2ccc(O)cc2)c(Cl)cc1Cl [CBK113231] | 109.036 |
| Cc1ccccc1C(=O)Nc1cccc(NC(=O)c2ccc(-c3cc4ccccc4oc3=O)cc2)c1 [CBK267256] | 108.903 |
| Cc1cc2nc3s/c(=C\c4ccc(-c5ccc(O)c(C(=O)O)c5)o4)c(=O)n3c2cc1C [CBK262538] | 117.265 |
| Cc1c(C(=O)C2=C(O)C(=O)N(CCN3CCOCC3)C2c2ccccn2)cnn1-c1ccccc1 (stereo not drawn) [CBK266493] | 94.9625 |
| CCN1CCC[C@@H]1CNC(=O)c1ccncc1 [CBK174659] | 110.901 |
| Cn1c(=O)c2c(O)cc(=O)oc2c2ccccc21 [CBK003546] | 118.981 |
| O=S(=O)(NCc1cccc(F)c1)c1ccc(OC(F)(F)F)cc1 [CBK043379] | 151.982 |
| CCCCCOc1ccc(Nc2ccc(-c3cccnc3)cn2)cc1 [CBK036948] | 135.103 |
| CN(C)c1ccc(Nc2nc(NCCO)c3ccccc3n2)cc1 [CBK268392C] | 10.622 |
| O=S(=O)(c1cccs1)N1CCCN(Cc2nccs2)CC1 [CBK045172] | 85.9434 |
| CS(=O)(=O)c1cccc(-c2nnc(NC(=O)c3ccccc3)o2)c1 [CBK287726] | 141.256 |
| Cc1cccc(CCNC(=O)c2cccn(CC(=O)N(C)C3CCCCC3)c2=O)c1 [CBK286113] | 96.9089 |
| CCn1nc(C(C)C)cc1C(=O)N1CC2(CCNCC2)CC1C(=O)O (stereo not drawn) [CBK307179] | 148.452 |
| Cc1ccc(OCCSc2nnc3[nH]c4ccccc4n23)cc1 [CBK267922] | 117.176 |
| Cc1ccc(C(C)CCN2CC3CCCN3C[C@H]2C)o1 (stereo partly drawn) [CBK285467] | 125.994 |
| CCCOc1ccc(-c2cc(C(=O)NO)n[nH]2)cc1C [CBK288362] | 120.919 |
| Nc1ncc(-c2ccc(-c3ccccc3F)cc2)c2cccnc12 [CBK067597] | 135.916 |
| C=CCOC(=O)N1CCC(C(=O)NC(c2ccccn2)c2ccccc2C)CC1 (stereo not drawn) [CBK059689] | 99.3867 |
| COc1ccccc1-c1cccc(CC2(C(=O)NCCc3ccccc3)CCOCC2)c1 [CBK285593] | 115.306 |

| SMILES | % of control remaining [%] |
| --- | --- |
| COc1ccc(/C=C2\S/C(=N/N=C/c3ccc(OC)cc3)N(c3ccc(O)cc3)C2=O)cc1 [CBK262780] | 131.264 |
| CCCCc1ccc(C(N)=O)nc1C(N)=O [CBK005061] | 124.519 |
| O=C(NCCc1ccc(S(=O)(=O)NC(=O)NC2CCCCC2)cc1)NC1CCCCC1 [CBK011926] | 143.124 |
| CC(C)Nc1nccnc1Sc1ccc(N)cc1 [CBK089485] | 129.393 |
| COc1cccc(CC(=O)N2C3CCC2CC(O)(c2ccco2)C3)c1 (stereo not drawn) [CBK284053] | 136.987 |
| CN1CCCN(c2ccc(NS(=O)(=O)c3cccc(F)c3)c3ccccc23)CC1 [CBK200010C] | 19.7179 |
| Cc1nn(-c2cccc(C(=O)NC3CCCOC3)c2)c(C)c1Cl (stereo not drawn) [CBK282512] | 114.277 |
| Cc1nc(C)c(C(=O)NCCN2CCCCC2C)s1 (stereo not drawn) [CBK282200] | 121.991 |
| Cc1ccccc1N1CCN(C(=O)c2nn[nH]c2Nc2ccccc2F)CC1 [CBK288032] | 113.963 |
| CS(=O)(=O)c1ccc2nc(NC(=O)c3ccco3)sc2c1 [CBK287341] | 139.555 |
| CCCOC1CCCN(Cc2cn(CC(N)=O)c3ccccc23)C1 (stereo not drawn) [CBK282796] | 125.57 |
| OCCN1CCN(c2nc(-c3cc(Cl)cc(Cl)c3)cn3ccnc23)CC1 [CBK066558] | 122.303 |
| Cc1nn2cc(-c3n[nH]cc3[N+](=O)[O-])cnc2c1C(N)=O [CBK268957] | 139.963 |
| Cc1cccc(-c2ocnc2C(=O)NC(C)c2ccccn2)c1 (stereo not drawn) [CBK282427] | 101.298 |
| Cc1noc(C)c1COc1ccc(C(=O)N[C@@H]2CN(C(=O)NC(C)C)CCC[C@H]2O)cc1 [CBK289069] | 110.637 |
| CCc1noc(C)c1C(=O)Nc1cccc(Cn2cc(Cl)cn2)c1 [CBK268127] | 133.721 |
| Cc1cc(Cl)ccc1OC(C)C(=O)NCc1ccccn1 (stereo not drawn) [CBK265441] | 100 |
| Cc1ccc(CS(=O)(=O)N(CC(C)C)C2CC2)c(F)c1 [CBK306460] | 92.0653 |
| O=C(NCc1ccc([N+](=O)[O-])cc1)c1cccnc1NCc1ccc2c(c1)OCO2 [CBK153436] | 15.7061 |
| Nc1ncc(-c2ccc(O)cc2)nc1N1CCN(CCO)CC1 [CBK063685] | 93.1401 |
| O=C(Nc1cccc(C(F)(F)F)c1)c1ccc(N2CCNCC2)c([N+](=O)[O-])c1 [CBK266274] | 89.7222 |
| O=C(Nc1ccc2c(c1)OCO2)N1CCN(c2ccc(F)cc2)CC1 [CBK270332] | 113.364 |
| O=C(NC1CCCC1)c1ncoc1-c1ccccc1 [CBK281937] | 131.563 |
| CCn1c(=O)n(CC(=O)N2CCCC3CCCCC32)c2cccnc21 (stereo not drawn) [CBK283893] | 121.409 |
| CN(C)S(=O)(=O)c1cc(C(=O)Nc2ccc(C(=O)O)cc2)c(Cl)cc1Cl [CBK266783] | 107.831 |
| Cn1ccnc1C1(O)CC2CCC(C1)N2C(=O)NC1CCCCC1 (stereo not drawn) [CBK284049] | 148.098 |

Quoted at random: 4 records from the list.

| SMILES | % of control remaining [%] |
| --- | --- |
| OCCSc1ccc(C(F)(F)F)cn1 [CBK028739] | 96.7653 |
| O=C(O)[C@H]1CN(C(=O)c2ccco2)C[C@@H]1c1ccc(F)cc1 [CBK283735] | 105.83 |
| CCc1ccc(CNC(=O)Cn2nnc(-c3ccc(CN4CCC(C)CC4)nc3SC)n2)cc1 [CBK156205T] | 110.048 |
| COC(=O)c1c(NC(=S)Nn2cnnc2)sc2c1CCC(C)C2 (stereo not drawn) [CBK266942] | 167.769 |
